{"source": "patent US3984432A", "about": "“Color photographic recording material” (priority 1973, dated 1976)", "assay": "Colour reversal processing, Use Example II", "settings": "black-and-white development, then colour development"}
{"smiles": "CCCCC(CC)COP(=O)(CCCOc1cccc(C(=O)Nc2ccc(C(=O)NC3=NN(c4c(Cl)cc(Cl)cc4Cl)C(=O)C3)cc2)c1)OCC(CC)CCCC", "note": "(stereo not shown) [(215)]", "values": [{"measurement": "Appearance of colour wedge (reversal)", "value": "clear magenta wedge corresponding to a colour reversal material"}]}
